PubChem BioAssay AID493246 | Drosophila RNAi Screening Center – 2011
Purpose: 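Genes fly cells need to grow and stay alive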 (primary screen). System: Drosophila Kc and S2R+ cells. Knock-down reagent: long dsRNA against Drosophila genes. Measured: 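Raw, unnormalised count of remaining cells in each well; per-plate z-scores of cell number underlie the calls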. Scale: Kc cell number and S2R+ cell number: higher = more cells remaining. Rule for the call: 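Active when the per-plate z-score of cell number is 3 or more in the direction of fewer cells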.
In all, the deposit lists about 21,000 reagents; this is an unselected part of those with a known target gene and a result. Over the whole deposit, 429 (2%) are marked active. 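Values are raw and not normalised between plates; calls rest on per-plate z-scores that were not deposited.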 A number with no mark means an inactive call. Names joined by + are all predicted targets of the reagent. No sequences are given here. Not given: the amount of reagent, the time to read-out.

| predicted target | amplicon | Kc cell number, rep 1 | Kc cell number, rep 2 | S2R+ cell number, rep 1 | S2R+ cell number, rep 2 |
| --- | --- | --- | --- | --- | --- |
| CG3483 | DRSC04371 | 1.43e6 | 1.53e6 | 1.13e6 | 1.24e6 |
| CG30325 | DRSC05685 | 5.87e5 | – | 8.63e5 | – |
| puml | DRSC06793 | 1.50e6 | 1.68e6 | 1.21e6 | 1.38e6 |
| spz4 | DRSC02410 | 1.62e6 | 1.66e6 | 1.14e6 | 1.28e6 |
| CG5084 | DRSC06913 | 1.51e6 | 1.56e6 | 1.06e6 | 1.18e6 |
| Hr38 | DRSC03345 | 1.53e6 | 1.54e6 | 1.03e6 | 3.01e5 |
| kis | DRSC00521 | 1.73e6 | 1.75e6 | 1.13e6 | 1.28e6 |
| kis | DRSC00625 | 1.80e6 | 1.78e6 | 1.03e6 | 1.14e6 |
| kis | DRSC00823 | 1.32e6 | 1.34e6 | 8.72e5 | 8.31e5 |
| Or67c | DRSC11242 | 1.72e6 | 1.64e6 | 1.39e6 | 1.47e6 |
| qkr58E-3 | DRSC04711 | 1.39e6 | 1.49e6 | 1.03e6 | 1.10e6 |
| CG42579 | DRSC20391 | 1.40e6 | 1.62e6 | 1.13e6 | 1.16e6 |
| ste24b | DRSC07315 | 1.50e6 | 1.57e6 | 1.22e6 | 1.35e6 |
| CG12744 | DRSC06164 | 1.32e6 | 1.36e6 | 1.11e6 | 1.17e6 |
| CG32106 | DRSC09219 | 1.41e6 | 1.42e6 | 1.11e6 | 1.24e6 |
| CG13575 | DRSC04211 | 1.52e6 | 1.58e6 | 1.26e6 | 1.38e6 |
| CG5181 | DRSC02825 | 1.32e6 | 1.37e6 | 5.64e5 | 6.03e5 |
| CG33140 | DRSC06030 | 1.49e6 | 1.52e6 | 1.18e6 | 1.29e6 |
| CG31516 | DRSC11994 | 1.22e6 | 1.54e6 | 1.13e6 | 1.36e6 |
| ATPsynF | DRSC04482 | 1.40e6 | 1.50e6 | 1.04e6 | 1.09e6 |
| CG3630 | DRSC18499 | 5.14e5 | – | 7.59e5 | – |
| wkd | DRSC15777 | 1.50e6 | 1.47e6 | 1.20e6 | 1.27e6 |
| Opbp | DRSC04966 | 1.52e6 | 1.60e6 | 1.27e6 | 1.39e6 |
| CG9517 (retired record) | DRSC20192 | 1.48e6 | 1.49e6 | 1.07e6 | 1.14e6 |
| CG9517 (retired record) | DRSC20193 | 1.42e6 | 1.43e6 | 1.08e6 | 1.16e6 |
| Ir41a | DRSC04730 | 1.48e6 | 1.62e6 | 1.02e6 | 1.16e6 |
| Ir41a | DRSC04875 | 1.61e6 | 1.65e6 | 1.22e6 | 1.32e6 |
| CG3735 | DRSC04411 | 1.25e6 | 1.39e6 | 1.11e6 | 1.14e6 |
| CG13000 | DRSC19519 | 1.49e6 | 1.56e6 | 9.68e5 | 1.10e6 |
| CG15332 | DRSC18015 | 1.56e6 | 1.52e6 | 1.01e6 | 1.10e6 |

Reprinted from the entries so far for reference:
| predicted target | amplicon | Kc cell number, rep 1 | Kc cell number, rep 2 | S2R+ cell number, rep 1 | S2R+ cell number, rep 2 |
| --- | --- | --- | --- | --- | --- |
| qkr58E-3 | DRSC04711 | 1.39e6 | 1.49e6 | 1.03e6 | 1.10e6 |
| CG42579 | DRSC20391 | 1.40e6 | 1.62e6 | 1.13e6 | 1.16e6 |
| ste24b | DRSC07315 | 1.50e6 | 1.57e6 | 1.22e6 | 1.35e6 |
| CG12744 | DRSC06164 | 1.32e6 | 1.36e6 | 1.11e6 | 1.17e6 |
| CG32106 | DRSC09219 | 1.41e6 | 1.42e6 | 1.11e6 | 1.24e6 |
| CG13575 | DRSC04211 | 1.52e6 | 1.58e6 | 1.26e6 | 1.38e6 |

Additional entries follow.
| predicted target | amplicon | Kc cell number, rep 1 | Kc cell number, rep 2 | S2R+ cell number, rep 1 | S2R+ cell number, rep 2 |
| --- | --- | --- | --- | --- | --- |
| Eig71Eb | DRSC11149 | 1.37e6 | 1.56e6 | 1.29e6 | 1.39e6 |
| HDAC4 | DRSC19780 | 1.67e6 | 1.62e6 | 1.11e6 | 1.22e6 |
| CG15370 | DRSC18042 | 1.54e6 | 1.48e6 | 8.57e5 | 9.39e5 |
| Trc8 | DRSC15437 | 5.29e5 | – | 7.61e5 | – |
| Tango8 | DRSC06474 | 1.44e6 | 1.52e6 | 8.80e5 | 9.97e5 |
| RpS14b | DRSC18711 | 8.41e5 (active) | 8.88e5 | 6.96e5 | 8.14e5 |
| Ugt49B2 | DRSC16049 | 1.47e6 | 1.53e6 | 1.01e6 | 9.70e5 |
| CG31360 | DRSC13255 | 1.40e6 | 1.46e6 | 1.04e6 | 1.07e6 |
| Rrp6 | DRSC16223 | 1.17e6 | 1.25e6 | 7.77e5 | 8.98e5 |
| CG14683 | DRSC17035 | 1.79e6 | 1.91e6 | 1.54e6 | 1.62e6 |
| shakB | DRSC20492 | 1.83e6 | 1.81e6 | 1.14e6 | 1.32e6 |
| shakB | DRSC20585 | 1.51e6 | 1.55e6 | 1.08e6 | 1.18e6 |
| Fnta | DRSC00557 | 1.26e6 | 1.36e6 | 7.73e5 | 7.63e5 |
| CG1077 | DRSC12146 | 1.58e6 | 1.69e6 | 1.38e6 | 1.54e6 |
| CG9799 | DRSC16567 | 1.46e6 | 1.68e6 | 1.27e6 | 1.39e6 |
| CG30127 (retired record) | DRSC05785 | 5.11e5 | – | 8.21e5 | – |
| CG30127 (retired record) | DRSC05786 | 6.13e5 | – | 8.59e5 | – |
| glo | DRSC16145 | 1.55e6 | 1.63e6 | 1.25e6 | 1.33e6 |
| CG5554 | DRSC04513 | 1.53e6 | 1.56e6 | 1.20e6 | 1.43e6 |
| nAChRbeta3 | DRSC00325 | 1.19e6 | 1.61e6 | 1.02e6 | 1.09e6 |
| CG5348 | DRSC06933 | 1.59e6 | 1.59e6 | 1.22e6 | 1.39e6 |
| HIP + HIP-R | DRSC18245 | 5.61e5 | – | 9.46e5 | – |
| CG1503 | DRSC20512 | 1.44e6 | 1.47e6 | 9.76e5 | 1.15e6 |
| CG14629 | DRSC18476 | 1.51e6 | 1.52e6 | 8.50e5 | 1.05e6 |
| Or9a | DRSC18692 | 1.53e6 | 1.51e6 | 9.85e5 | 1.11e6 |
| ppk14 | DRSC03238 | 1.59e6 | 1.64e6 | 1.19e6 | 1.53e6 |
| CG32683 | DRSC17990 | 1.46e6 | 1.51e6 | 9.88e5 | 1.11e6 |
| CG32683 | DRSC18232 | 1.66e6 | 1.61e6 | 1.05e6 | 1.18e6 |
| CG32683 | DRSC18233 | 1.80e6 | 1.70e6 | 1.08e6 | 1.18e6 |
